Measured values taken from patent US5169836A, “Inhibitors of platelet binding” (Trustees of the University of Penna., priority 1988, dated 1992).
Not every detail of the peptide structures is certain; ends, links or a residue may be inferred. Where a SMILES comes first, the peptide text is derived from it. Where no end group is shown, it is not given here. [ ]: non-standard residue; d: D form.

What was measured:
[1] = target: T1, glycoprotein IIb-IIIa on activated platelets (Homo sapiens, UniProt P05106+P08514); assay: Binding of FITC-PAC1 to activated gel-filtered platelets, flow cytometry; conditions: FIG. 6A
T1 construct: Venous blood from normal donors was drawn; endogenous in cells
T1 sequence (P08514 32-887 limits assumed): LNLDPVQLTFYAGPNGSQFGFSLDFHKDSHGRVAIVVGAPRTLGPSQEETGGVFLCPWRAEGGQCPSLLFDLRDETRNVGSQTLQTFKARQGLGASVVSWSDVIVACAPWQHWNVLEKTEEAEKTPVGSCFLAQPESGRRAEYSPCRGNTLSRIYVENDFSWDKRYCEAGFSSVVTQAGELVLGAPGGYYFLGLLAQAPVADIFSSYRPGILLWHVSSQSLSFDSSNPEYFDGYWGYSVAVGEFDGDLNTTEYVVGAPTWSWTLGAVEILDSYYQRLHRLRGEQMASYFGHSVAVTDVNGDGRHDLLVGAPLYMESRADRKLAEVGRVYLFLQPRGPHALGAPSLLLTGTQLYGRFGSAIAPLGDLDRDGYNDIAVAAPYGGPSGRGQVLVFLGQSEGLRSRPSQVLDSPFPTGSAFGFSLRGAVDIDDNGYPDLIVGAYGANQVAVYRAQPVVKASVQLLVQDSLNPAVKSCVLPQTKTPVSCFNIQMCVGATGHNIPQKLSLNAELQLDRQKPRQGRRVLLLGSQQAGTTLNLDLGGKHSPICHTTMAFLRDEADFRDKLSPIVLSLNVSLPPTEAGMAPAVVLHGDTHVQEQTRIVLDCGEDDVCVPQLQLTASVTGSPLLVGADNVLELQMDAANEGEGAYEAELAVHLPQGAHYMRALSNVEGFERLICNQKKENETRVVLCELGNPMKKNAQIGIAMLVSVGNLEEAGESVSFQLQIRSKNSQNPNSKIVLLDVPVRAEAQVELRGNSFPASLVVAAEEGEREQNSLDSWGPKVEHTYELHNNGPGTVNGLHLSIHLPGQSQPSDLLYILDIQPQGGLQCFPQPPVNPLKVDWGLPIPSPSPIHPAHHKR
T1 sequence (P05106 27-788): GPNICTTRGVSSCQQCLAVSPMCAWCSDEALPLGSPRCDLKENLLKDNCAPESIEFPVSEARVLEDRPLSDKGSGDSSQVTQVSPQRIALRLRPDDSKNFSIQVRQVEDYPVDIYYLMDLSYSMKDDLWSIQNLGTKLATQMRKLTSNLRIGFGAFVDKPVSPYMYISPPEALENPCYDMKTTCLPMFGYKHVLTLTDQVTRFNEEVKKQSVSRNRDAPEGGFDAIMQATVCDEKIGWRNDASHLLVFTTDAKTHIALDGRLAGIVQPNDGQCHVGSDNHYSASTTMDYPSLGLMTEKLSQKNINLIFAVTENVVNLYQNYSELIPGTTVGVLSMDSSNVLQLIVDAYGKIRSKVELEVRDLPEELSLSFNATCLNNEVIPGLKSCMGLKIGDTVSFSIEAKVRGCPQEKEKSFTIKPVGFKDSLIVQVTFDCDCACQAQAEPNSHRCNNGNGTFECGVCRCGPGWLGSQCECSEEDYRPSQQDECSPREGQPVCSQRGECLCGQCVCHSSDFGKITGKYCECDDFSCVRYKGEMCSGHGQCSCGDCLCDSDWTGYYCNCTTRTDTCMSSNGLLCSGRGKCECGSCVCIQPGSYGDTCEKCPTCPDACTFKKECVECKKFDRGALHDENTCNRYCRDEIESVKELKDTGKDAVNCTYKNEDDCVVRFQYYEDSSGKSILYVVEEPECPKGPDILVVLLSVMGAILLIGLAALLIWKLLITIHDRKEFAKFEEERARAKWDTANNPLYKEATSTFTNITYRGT
From the text: The binding of PAC1 monoclonal antibody and fibrinogen to gel-filtered human blood platelets was examined by fluorescence-activated flow cytometry using the procedures of Shattil et al., Blood, 70, 307-315 (1987). Venous blood from normal donors was drawn into 1/7 vol of NIH formula A acid-citrate-dextrose solution, platelet-rich plasma was obtained, and the platelets were gel-filtered into an isotonic HEPES-containing buffer at pH 7.4, as described in Shattil et al., Blood, 68, 1224-1231 (1986). To examine the effect of synthetic peptides on PAC1 binding to activated platelets, 5×10^7 platelets were incubated for 15 min at room temperature in a final vol of 50 μl in the presence of varying concentrations of (0-100 μM) of peptide, 40 μg/ml fluorescein-labeled PAC1 (FITC-PAC1 ), 10 μM ADP and 10 μM epinephrine. Then, 500 μl of the isotonic buffer was added and antibody binding was quantitated using a flow cytometer, as described in Shattil et al., Blood, 70, 307-315 (1987). Fibrinogen binding to platelets was measured using the same incubation system, except that 50 μg/ml of purified human fibrinogen as described in Bennett et al., J. Clin. Invest., 64, 1393-1400 (1979) was added and the monoclonal antibody, FITC-9F9, was used instead of FITC-PAC1. […] Abrams et al., Blood, 70, 335a (1987). […] Shattil et al., Blood 70, 307-315 (1987). The amount of platelet-bound FITC-PAC1 or FITC-9F9 was determined by analyzing 10,000 platelets for the extent of fluorescence at 488 nm, and binding expressed as the mean fluorescence intensity in arbitrary fluorescence units.

[2] = target: T2, blood platelet membrane fibrinogen receptor, glycoprotein IIb-IIIa (Homo sapiens, UniProt P05106+P08514); assay: Fibrinogen binding to activated gel-filtered platelets, measured with FITC-9F9 by flow cytometry; conditions: FIG. 6B
T2 construct: Venous blood from normal donors was drawn; endogenous in cells
T2 sequence (P08514 32-887 limits assumed): T1 sequence (P08514 32-887 limits assumed)
T2 sequence (P05106 27-788): T1 sequence (P05106 27-788)
From the text: The binding of PAC1 monoclonal antibody and fibrinogen to gel-filtered human blood platelets was examined by fluorescence-activated flow cytometry using the procedures of Shattil et al., Blood, 70, 307-315 (1987). Venous blood from normal donors was drawn into 1/7 vol of NIH formula A acid-citrate-dextrose solution, platelet-rich plasma was obtained, and the platelets were gel-filtered into an isotonic HEPES-containing buffer at pH 7.4, as described in Shattil et al., Blood, 68, 1224-1231 (1986). To examine the effect of synthetic peptides on PAC1 binding to activated platelets, 5×10^7 platelets were incubated for 15 min at room temperature in a final vol of 50 μl in the presence of varying concentrations of (0-100 μM) of peptide, 40 μg/ml fluorescein-labeled PAC1 (FITC-PAC1 ), 10 μM ADP and 10 μM epinephrine. Then, 500 μl of the isotonic buffer was added and antibody binding was quantitated using a flow cytometer, as described in Shattil et al., Blood, 70, 307-315 (1987). Fibrinogen binding to platelets was measured using the same incubation system, except that 50 μg/ml of purified human fibrinogen as described in Bennett et al., J. Clin. Invest., 64, 1393-1400 (1979) was added and the monoclonal antibody, FITC-9F9, was used instead of FITC-PAC1. Antibody 9F9 is specific for fibrinogen and has been used successfully to measure the amount of fibrinogen bound to platelets. […] Previous studies have established that the amount of FITC-labeled antibody bound to platelets determined by flow cytometry is related in a linear fashion to the amount of antibody bound determined in a conventional radioligand binding assay. […] The amount of platelet-bound FITC-PAC1 or FITC-9F9 was determined by analyzing 10,000 platelets for the extent of fluorescence at 488 nm, and binding expressed as the mean fluorescence intensity in arbitrary fluorescence units.
The ability of Arg-Tyr-Asp-21mer to inhibit fibrinogen binding to activated platelets was also tested. Fibrinogen binding was assessed by flow cytometry using a FITC-labeled anti-fibrinogen monoclonal antibody, 9F9. […]

gel-filtered platelets = format: cell-based, human; conditions: FIG. 5

Row | Compound | inhibitory potency relative to Arg-Tyr-Asp-21mer, PAC1 binding assay [1] | inhibitory potency relative to Arg-Tyr-Asp-21mer, fibrinogen binding assay [2] | inhibitory potency relative to Arg-Tyr-Asp-21mer, aggregation assay (gel-filtered platelets)
1 | CSCC[C@H](NC(=O)[C@H](C)NC(=O)[C@H](Cc1ccc(O)cc1)NC(=O)[C@H](Cc1ccc(O)cc1)NC(=O)[C@@H]1CCCN1C(=O)CNC(=O)[C@H](C)NC(=O)CNC(=O)[C@H](CC(=O)O)NC(=O)[C@@H](C)NC(=O)[C@H](CCCNC(=N)N)NC(=O)[C@H](Cc1ccc(O)cc1)NC(=O)[C@H](Cc1ccc(O)cc1)NC(=O)[C@H](CO)NC(=O)[C@@H]1CCCN1C(=O)[C@H](CO)NC(=O)[C@H](CCCNC(=N)N)NC(=O)[C@H](CCCNC(=N)N)NC(=O)[C@H](C)N)C(=O)N[C@@H](CC(=O)O)C(=O)N[C@@H](Cc1ccc(O)cc1)C(=O)O [Arg-D-Ala-Asp-21mer] (H-ARRSPSYYR[dA]DGAGPYYAMDY-OH) | substantially reduced the inhibitory capacity | substantially reduced the inhibitory capacity | –
2 | ARRSPSYYDYRGAGPYYAMDY [Asp-Tyr-Arg-21mer] | substantially reduced the inhibitory capacity | substantially reduced the inhibitory capacity | –
3 | ARRSPSYYRGDGAGPYYAMDY [Arg-Gly-Asp-21mer] | about ten-fold | about ten-fold | about ten-fold
